Reference: doi:10.1101/2023.04.12.536447
Like-named read-outs stand apart in the source and are kept apart here. No constants are given. Whether binding was seen depends on the method and setting. In cells and extracts the contact can be indirect. Some entries that bind do so weakly or less than the wild type.

Sequences of proteins named here, by UniProt entry; tags and fusion partners are left off.
UniProt P06804: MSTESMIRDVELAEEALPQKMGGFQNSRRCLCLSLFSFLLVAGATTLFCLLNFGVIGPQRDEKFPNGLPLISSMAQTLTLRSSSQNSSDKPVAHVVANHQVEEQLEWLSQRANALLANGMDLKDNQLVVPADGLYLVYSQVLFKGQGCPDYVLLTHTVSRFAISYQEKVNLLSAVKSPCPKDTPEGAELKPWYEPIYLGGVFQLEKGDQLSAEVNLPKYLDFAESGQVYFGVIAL

Tests used:
[1] = molecular target: GFP-tagged TNFα (UniProt P06804); test: co-IP
[2] = molecular target: GFP-tagged TNFα (UniProt P06804); test: co-IP; remark: listed apart in the source

Molecule | binding [1] | binding [2]
SorLA (full-length receptor) (from UniProt Q92673 82-2214) | binds | –
SorLA-ΔCR (from UniProt Q92673 82-2214) (receptor) | binds | –
SorLA-ΔEGF/β-propeller (from UniProt Q92673 82-2214) (receptor) | binds | –
SorLA-ΔFN3 (from UniProt Q92673 82-2214) (receptor) | binds | –
SorLA-ΔVPS10P (domain or fragment, UniProt Q92673 754-2214) LAEENEFILYAVRKSIYRYDLASGATEQLPLTGLRAAVALDFDYEHNCLYWSDLALDVIQRLCLNGSTGQEVIINSGLETVEALAFEPLSQLLYWVDAGFKKIEVANPDGDFRLTIVNSSVLDRPRALVLVPQEGVMFWTDWGDLKPGIYRSNMDGSAAYHLVSEDVKWPNGISVDDQWIYWTDAYLECIERITFSGQQRSVILDNLPHPYAIAVFKNEIYWDDWSQLSIFRASKYSGSQMEILANQLTGLMDMKIFYKGKNTGSNACVPRPCSLLCLPKANNSRSCRCPEDVSSSVLPSGDLMCDCPQGYQLKNNTCVKQENTCLRNQYRCSNGNCINSIWWCDFDNDCGDMSDERNCPTTICDLDTQFRCQESGTCIPLSYKCDLEDDCGDNSDESHCEMHQCRSDEYNCSSGMCIRSSWVCDGDNDCRDWSDEANCTAIYHTCEASNFQCRNGHCIPQRWACDGDTDCQDGSDEDPVNCEKKCNGFRCPNGTCIPSSKHCDGLRDCSDGSDEQHCEPLCTHFMDFVCKNRQQCLFHSMVCDGIIQCRDGSDEDAAFAGCSQDPEFHKVCDEFGFQCQNGVCISLIWKCDGMDDCGDYSDEANCENPTEAPNCSRYFQFRCENGHCIPNRWKCDRENDCGDWSDEKDCGDSHILPFSTPGPSTCLPNYYRCSSGTCVMDTWVCDGYRDCADGSDEEACPLLANVTAASTPTQLGRCDRFEFECHQPKTCIPNWKRCDGHQDCQDGRDEANCPTHSTLTCMSREFQCEDGEACIVLSERCDGFLDCSDESDEKACSDELTVYKVQNLQWTADFSGDVTLTWMRPKKMPSASCVYNVYYRVVGESIWKTLETHSNKTNTVLKVLKPDTTYQVKVQVQCLSKAHNTNDFVTLRTPEGLPDAPRNLQLSLPREAEGVIVGHWAPPIHTHGLIREYIVEYSRSGSKMWASQRAASNFTEIKNLLVNTLYTVRVAAVTSRGIGNWSDSKSITTIKGKVIPPPDIHIDSYGENYLSFTLTMESDIKVNGYVVNLFWAFDTHKQERRTLNFRGSILSHKVGNLTAHTSYEISAWAKTDLGDSPLAFEHVMTRGVRPPAPSLKAKAINQTAVECTWTGPRNVVYGIFYATSFLDLYRNPKSLTTSLHNKTVIVSKDEQYLFLVRVVVPYQGPSSDYVVVKMIPDSRLPPRHLHVVHTGKTSVVIKWESPYDSPDQDLLYAVAVKDLIRKTDRSYKVKSRNSTVEYTLNKLEPGGKYHIIVQLGNMSKDSSIKITTVSLSAPDALKIITENDHVLLFWKSLALKEKHFNESRGYEIHMFDSAMNITAYLGNTTDNFFKISNLKMGHNYTFTVQARCLFGNQICGEPAILLYDELGSGADASATQAARSTDVAAVVVPILFLILLSLGVGFAILYTKHRRLQSSFTAFANSHYSSRLGSAIFSSGDDLGEDDEDAPMITGFSDDVPMVIA | – | binds
